Laboratory results: paper PMC6197854
Results are given in words; binding and its absence hold for the method and conditions named. Some results given as binding are weak or reduced against the parent protein; the word gives no strength. For some of these results: Sequences can lack the tags named with a protein.

By UniProt entry, the sequences of proteins in these tests, tags left out. Residues count along the entry.
UniProt Q9NSA1, residues 29-209: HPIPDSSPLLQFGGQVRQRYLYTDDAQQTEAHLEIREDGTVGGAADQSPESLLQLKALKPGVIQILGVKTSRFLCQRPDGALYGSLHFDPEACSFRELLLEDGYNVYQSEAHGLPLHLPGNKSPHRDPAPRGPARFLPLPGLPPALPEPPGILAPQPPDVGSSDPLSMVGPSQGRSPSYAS
UniProt Q00604, residues 25-133: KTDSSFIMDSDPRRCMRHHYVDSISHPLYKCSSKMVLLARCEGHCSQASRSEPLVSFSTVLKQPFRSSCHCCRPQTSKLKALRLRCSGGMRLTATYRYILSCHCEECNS
UniProt Q8BSQ9: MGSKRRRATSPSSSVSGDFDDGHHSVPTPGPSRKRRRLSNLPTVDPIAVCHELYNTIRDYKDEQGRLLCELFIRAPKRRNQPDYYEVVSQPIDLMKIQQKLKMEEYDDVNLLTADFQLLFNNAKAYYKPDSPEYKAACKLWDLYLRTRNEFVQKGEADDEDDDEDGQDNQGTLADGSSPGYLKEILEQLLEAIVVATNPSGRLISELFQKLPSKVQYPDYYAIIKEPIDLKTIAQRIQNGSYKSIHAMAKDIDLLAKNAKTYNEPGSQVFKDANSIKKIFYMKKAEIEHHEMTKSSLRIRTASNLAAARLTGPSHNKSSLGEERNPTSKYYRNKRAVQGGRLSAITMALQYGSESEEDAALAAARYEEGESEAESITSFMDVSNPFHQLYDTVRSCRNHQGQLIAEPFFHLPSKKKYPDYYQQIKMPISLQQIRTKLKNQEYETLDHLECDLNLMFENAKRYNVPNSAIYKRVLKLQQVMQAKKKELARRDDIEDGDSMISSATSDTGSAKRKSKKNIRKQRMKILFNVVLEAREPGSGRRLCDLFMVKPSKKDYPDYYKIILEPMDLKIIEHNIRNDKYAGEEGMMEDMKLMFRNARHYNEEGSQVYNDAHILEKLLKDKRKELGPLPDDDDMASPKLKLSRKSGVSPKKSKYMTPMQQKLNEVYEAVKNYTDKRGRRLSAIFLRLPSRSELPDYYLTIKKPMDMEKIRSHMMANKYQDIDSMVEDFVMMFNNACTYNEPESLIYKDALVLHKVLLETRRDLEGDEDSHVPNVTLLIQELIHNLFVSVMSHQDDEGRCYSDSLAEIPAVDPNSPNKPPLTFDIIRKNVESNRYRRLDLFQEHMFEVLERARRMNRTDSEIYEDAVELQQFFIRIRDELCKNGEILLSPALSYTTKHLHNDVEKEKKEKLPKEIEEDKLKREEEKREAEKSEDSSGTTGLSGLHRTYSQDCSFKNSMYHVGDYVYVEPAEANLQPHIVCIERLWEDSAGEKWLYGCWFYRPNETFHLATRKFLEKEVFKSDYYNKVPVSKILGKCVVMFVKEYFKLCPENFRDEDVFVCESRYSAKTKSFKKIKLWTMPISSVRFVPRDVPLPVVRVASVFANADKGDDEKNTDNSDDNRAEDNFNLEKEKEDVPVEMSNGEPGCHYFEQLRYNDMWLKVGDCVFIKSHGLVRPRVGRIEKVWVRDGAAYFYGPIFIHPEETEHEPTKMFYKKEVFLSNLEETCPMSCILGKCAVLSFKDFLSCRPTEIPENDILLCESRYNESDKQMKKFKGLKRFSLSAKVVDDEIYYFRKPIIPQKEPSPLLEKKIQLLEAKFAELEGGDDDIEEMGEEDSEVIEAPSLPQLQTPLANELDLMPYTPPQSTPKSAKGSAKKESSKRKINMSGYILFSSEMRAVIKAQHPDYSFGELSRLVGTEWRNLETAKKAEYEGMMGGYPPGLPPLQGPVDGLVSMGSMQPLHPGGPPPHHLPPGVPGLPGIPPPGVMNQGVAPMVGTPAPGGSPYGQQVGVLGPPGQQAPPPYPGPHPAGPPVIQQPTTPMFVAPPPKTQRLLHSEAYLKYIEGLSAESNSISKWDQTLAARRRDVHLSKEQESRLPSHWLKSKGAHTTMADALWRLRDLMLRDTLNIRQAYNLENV
UniProt Q80TS3, residues 20-1537: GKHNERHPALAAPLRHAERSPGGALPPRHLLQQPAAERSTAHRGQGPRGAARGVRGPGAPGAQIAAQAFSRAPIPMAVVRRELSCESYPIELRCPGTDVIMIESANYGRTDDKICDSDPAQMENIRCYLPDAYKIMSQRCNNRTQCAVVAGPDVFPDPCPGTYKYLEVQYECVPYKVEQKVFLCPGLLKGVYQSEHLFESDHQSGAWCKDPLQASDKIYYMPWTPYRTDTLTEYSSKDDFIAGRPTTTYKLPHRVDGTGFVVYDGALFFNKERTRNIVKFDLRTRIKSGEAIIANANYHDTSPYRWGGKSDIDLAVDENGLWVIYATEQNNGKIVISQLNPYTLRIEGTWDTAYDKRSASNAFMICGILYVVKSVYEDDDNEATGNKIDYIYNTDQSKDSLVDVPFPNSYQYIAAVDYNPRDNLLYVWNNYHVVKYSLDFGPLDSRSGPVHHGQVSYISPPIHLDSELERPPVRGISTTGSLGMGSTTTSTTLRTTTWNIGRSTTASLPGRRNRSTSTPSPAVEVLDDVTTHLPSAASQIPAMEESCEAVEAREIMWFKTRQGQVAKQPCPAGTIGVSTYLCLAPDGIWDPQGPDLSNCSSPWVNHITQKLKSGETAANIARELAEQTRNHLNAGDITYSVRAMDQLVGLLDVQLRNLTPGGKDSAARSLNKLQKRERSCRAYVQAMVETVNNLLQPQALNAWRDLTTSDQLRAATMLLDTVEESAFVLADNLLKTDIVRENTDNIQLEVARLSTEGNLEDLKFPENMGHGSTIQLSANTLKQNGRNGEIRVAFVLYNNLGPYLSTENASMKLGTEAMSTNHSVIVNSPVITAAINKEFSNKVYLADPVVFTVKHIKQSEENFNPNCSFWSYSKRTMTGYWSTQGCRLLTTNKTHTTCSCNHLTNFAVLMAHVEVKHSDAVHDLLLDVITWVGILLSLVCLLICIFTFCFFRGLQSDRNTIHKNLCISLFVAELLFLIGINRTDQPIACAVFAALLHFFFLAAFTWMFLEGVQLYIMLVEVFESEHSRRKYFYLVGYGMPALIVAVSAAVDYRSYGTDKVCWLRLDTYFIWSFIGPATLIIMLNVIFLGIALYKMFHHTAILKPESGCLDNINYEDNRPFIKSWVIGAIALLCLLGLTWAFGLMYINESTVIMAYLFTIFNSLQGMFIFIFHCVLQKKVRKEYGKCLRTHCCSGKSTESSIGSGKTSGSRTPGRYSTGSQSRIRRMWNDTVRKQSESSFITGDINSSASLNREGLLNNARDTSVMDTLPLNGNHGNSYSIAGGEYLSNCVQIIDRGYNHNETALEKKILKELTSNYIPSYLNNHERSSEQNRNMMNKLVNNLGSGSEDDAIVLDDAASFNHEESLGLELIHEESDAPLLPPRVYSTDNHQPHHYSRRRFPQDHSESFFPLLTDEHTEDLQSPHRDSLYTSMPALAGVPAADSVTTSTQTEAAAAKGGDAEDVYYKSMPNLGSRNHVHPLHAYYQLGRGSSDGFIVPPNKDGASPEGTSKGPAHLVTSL
UniProt Q80Z71, residues 27-1560: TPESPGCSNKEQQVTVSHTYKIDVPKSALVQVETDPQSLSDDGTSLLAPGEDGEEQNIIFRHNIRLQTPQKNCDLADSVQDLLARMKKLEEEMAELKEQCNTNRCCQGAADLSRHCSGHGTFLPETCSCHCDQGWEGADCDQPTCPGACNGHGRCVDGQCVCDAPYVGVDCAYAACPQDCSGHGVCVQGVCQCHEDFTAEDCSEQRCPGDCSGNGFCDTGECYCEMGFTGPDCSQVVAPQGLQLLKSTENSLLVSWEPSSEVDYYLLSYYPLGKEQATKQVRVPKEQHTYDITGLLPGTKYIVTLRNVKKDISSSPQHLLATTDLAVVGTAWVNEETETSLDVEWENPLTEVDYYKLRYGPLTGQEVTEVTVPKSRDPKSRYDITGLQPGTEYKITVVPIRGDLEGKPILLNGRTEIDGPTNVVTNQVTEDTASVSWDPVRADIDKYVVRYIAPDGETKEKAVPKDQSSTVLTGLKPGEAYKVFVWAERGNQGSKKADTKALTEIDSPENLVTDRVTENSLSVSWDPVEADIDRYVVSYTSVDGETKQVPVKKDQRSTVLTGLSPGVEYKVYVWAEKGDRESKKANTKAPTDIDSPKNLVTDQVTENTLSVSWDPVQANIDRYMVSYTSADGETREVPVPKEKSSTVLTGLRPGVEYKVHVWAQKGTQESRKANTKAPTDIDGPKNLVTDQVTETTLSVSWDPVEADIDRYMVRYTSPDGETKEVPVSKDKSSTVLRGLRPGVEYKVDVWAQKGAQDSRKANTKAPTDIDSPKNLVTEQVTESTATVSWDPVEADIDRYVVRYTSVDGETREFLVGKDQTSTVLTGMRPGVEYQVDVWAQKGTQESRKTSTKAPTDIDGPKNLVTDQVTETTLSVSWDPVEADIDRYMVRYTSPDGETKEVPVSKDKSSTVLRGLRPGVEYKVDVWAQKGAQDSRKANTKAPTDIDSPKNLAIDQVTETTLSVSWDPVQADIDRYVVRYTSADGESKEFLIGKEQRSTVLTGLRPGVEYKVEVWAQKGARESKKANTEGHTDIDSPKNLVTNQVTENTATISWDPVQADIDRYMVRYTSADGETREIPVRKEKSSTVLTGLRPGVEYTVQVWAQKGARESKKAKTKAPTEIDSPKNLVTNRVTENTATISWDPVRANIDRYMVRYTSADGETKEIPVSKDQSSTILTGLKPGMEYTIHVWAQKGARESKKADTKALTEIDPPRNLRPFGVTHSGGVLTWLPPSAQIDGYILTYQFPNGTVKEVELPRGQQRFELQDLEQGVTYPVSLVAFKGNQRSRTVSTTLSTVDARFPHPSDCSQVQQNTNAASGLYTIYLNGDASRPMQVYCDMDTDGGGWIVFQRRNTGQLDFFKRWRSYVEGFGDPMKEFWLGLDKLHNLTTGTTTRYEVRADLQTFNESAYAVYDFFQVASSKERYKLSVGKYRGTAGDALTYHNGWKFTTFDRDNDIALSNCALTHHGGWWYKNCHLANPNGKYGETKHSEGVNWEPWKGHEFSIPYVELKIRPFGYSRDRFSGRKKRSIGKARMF

Key:
FGF21-Fc (human) = FGF21-Fc (human) (UniProt Q9NSA1); assay: ACAPseq (affinity capture of polyribosomes followed by RNAseq); bait-Fc (~10 ug) on Protein-G magnetic beads; 40 ug neonatal mouse brain polyribosomes in 600 ul binding buffer (25 mM Tris pH 7.5, 150 mM KCl, 15 mM MgCl2, 1 mM CaCl2, 250 mM sucrose, 0.5% Igepal-630, 0.5% sodium deoxycholate, cyclohexamide, heparin), overnight at 4°C; captured mRNA sequenced; only the target purified
LRTM2-Fc (mouse) = molecular target: T1, LRTM2-Fc (mouse) (UniProt Q8BGX3); assay: as above
T1 sequence: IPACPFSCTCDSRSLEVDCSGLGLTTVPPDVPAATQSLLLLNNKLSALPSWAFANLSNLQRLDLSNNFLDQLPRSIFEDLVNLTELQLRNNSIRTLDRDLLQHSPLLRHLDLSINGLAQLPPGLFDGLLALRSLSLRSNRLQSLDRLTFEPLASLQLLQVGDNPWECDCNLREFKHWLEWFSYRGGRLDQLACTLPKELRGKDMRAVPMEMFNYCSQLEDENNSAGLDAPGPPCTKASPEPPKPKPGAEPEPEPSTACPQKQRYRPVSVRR

[1] = molecular target: T2, Frizzled4 on HEK293T cells (UniProt Q61088); assay: alkaline phosphatase fusion binding to live cells (AP histochemistry); AP fusion in ice-cold serum-free conditioned medium on live transfected HEK293T cells, 2 hr at 4°C
T2 sequence: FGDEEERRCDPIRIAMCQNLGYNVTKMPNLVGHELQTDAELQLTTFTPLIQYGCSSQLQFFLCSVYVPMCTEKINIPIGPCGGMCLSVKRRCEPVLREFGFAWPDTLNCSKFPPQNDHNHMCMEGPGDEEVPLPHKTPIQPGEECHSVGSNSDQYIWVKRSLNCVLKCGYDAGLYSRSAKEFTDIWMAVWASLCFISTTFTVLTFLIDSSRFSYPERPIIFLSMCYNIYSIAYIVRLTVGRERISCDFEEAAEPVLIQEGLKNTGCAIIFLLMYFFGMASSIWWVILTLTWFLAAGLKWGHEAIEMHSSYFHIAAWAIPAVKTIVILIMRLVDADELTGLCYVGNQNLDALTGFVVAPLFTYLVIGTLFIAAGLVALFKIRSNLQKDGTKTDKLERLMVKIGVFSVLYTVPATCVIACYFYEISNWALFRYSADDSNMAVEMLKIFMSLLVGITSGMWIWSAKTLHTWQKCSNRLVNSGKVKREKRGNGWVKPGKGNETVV

FLRT3-Fc (mouse) = molecular target: T3, FLRT3-Fc (mouse) (UniProt Q8BGT1); assay: ACAPseq (affinity capture of polyribosomes followed by RNAseq); bait-Fc (~10 ug) on Protein-G magnetic beads; 40 ug neonatal mouse brain polyribosomes in 600 ul binding buffer (25 mM Tris pH 7.5, 150 mM KCl, 15 mM MgCl2, 1 mM CaCl2, 250 mM sucrose, 0.5% Igepal-630, 0.5% sodium deoxycholate, cyclohexamide, heparin), overnight at 4°C; captured mRNA sequenced; only the target purified
T3 sequence: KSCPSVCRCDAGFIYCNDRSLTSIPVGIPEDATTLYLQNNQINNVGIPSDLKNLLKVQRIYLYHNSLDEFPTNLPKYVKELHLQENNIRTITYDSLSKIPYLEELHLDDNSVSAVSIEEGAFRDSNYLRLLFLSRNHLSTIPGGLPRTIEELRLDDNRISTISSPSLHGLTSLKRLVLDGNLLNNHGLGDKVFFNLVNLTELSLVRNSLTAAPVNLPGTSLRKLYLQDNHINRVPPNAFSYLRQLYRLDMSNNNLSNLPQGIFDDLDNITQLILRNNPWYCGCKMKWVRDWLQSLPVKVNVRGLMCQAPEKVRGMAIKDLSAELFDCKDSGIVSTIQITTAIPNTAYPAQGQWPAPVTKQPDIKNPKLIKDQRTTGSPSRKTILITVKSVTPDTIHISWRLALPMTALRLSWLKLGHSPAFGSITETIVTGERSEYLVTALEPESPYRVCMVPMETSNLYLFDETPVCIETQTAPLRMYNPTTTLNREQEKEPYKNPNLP

[2] = molecular target: T4, FLRT2 bait (Fc fusion) (mouse) (UniProt Q8BLU0); assay: as above
T4 sequence: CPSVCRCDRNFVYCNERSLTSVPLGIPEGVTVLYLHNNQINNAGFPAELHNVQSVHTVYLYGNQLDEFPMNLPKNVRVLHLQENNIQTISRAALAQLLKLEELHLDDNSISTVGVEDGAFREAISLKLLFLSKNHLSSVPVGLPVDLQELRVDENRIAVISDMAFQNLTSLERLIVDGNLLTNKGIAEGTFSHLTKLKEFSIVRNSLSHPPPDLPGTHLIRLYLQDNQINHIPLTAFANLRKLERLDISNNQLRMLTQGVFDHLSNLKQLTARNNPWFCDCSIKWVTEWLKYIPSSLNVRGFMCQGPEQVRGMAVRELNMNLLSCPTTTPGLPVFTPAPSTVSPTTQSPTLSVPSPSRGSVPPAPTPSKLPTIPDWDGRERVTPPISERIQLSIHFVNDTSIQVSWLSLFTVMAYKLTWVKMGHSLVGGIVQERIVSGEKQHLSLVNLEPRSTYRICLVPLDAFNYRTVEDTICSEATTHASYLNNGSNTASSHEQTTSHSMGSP

Row | Substance | binding (LRTM2-Fc (mouse)) | binding (FLRT3-Fc (mouse)) | also measured
1 | PLEC (nascent polypeptide on polyribosomes) (from UniProt Q9QXS1 1-4691) |  |  | binding (FGF21-Fc (human)): no binding
2 | TNC (nascent polypeptide on polyribosomes) (from UniProt Q80YX1 23-2110) | binds |  | 
3 | Norrin-AP (from UniProt Q00604 25-133) (ligand) |  |  | binding [1]: binds
4 | Polybromo-1 (nascent polypeptide on polyribosomes) (from UniProt Q8BSQ9 1-1634) |  | binds | 
5 | Adhesion G protein-coupled receptor L3 (nascent polypeptide on polyribosomes) (from UniProt Q80TS3 20-1537) |  | binds | binding [2]: binds
6 | TNN (nascent polypeptide on polyribosomes) (from UniProt Q80Z71 27-1560) | binds |  | 
